Results on one compound are retold here after patent US20140057284A1, “PHOTOLUMINESCENT MOLECULAR COMPLEX AND METHOD FOR DETERMINING OF THE CONCENTRATION OF SAID MOLECULAR COMPLEX” (priority 2011, published 2014).

The subject of the data set is PK. As to the kind of experiment: Time-resolved luminescence of probes bound to protein kinases. It is filed as binding.

`CN(C)c1ccc2c(c1)Oc1cc(N(C)C)ccc1C21OC(=O)c2cc(C(=O)NCCCC[C@@H](NC(=O)[C@@H](CCCNC(=N)N)NC(=O)[C@@H](CCCNC(=N)N)NC(=O)[C@@H](CCCNC(=N)N)NC(=O)[C@@H](CCCNC(=N)N)NC(=O)[C@@H](CCCNC(=N)N)NC(=O)[C@@H](CCCNC(=N)N)NC(=O)CCCCCNC(=O)[C@@H](CCCNC(=N)N)NC(=O)CCCCCNC(=O)c3ccc(-c4ccnc(N)n4)s3)C(N)=O)ccc21` [ARC-669]: the “luminescence lifetime of the signal” value (bound to PK, dependent on the PK) is given as 50-300 microseconds. In addition, the “increase of the luminescence signal on binding to a PK” value (ex 337 (50) nm, 50 microsecond delay, 100 microsecond window, em 590 (40) nm) is 50-2500 fold.
